Results deposited as PubChem BioAssay AID1224828 (NIAID, 2016)
Here is one part, drawn at random, of about 17,000 reagents tested. 762 of all reagents (4.5%) count as active. 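Active calls include both raised and lowered p65 entry, mostly lowered; wells with fewer than 50 cells lack a z-score.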 The raw values are shown without normalisation.

- Screen: 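Find genes required for NF-kappaB p65 moving into the nucleus after LPS in mouse macrophages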 (primary screen)
- Cells: mouse RAW264.7 G9 macrophage reporter cells (GFP-p65, Tnf promoter-mCherry)
- Reagents: siRNA pool against mouse genes, 100 nM
- Duration: 2 days siRNA transfection, then 40 min LPS before fixation
- Treatment: LPS (Salmonella minnesota R595) at 10 ng/ml
- Measured: 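Microscopy ratio of nuclear to perinuclear-ring GFP-p65 signal, scaled to the plate median; gene score is the average of two replicate robust z-scores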
- Direction: p65 translocation robust z-score: higher = more nuclear NF-kappaB p65 after LPS than the plate median; nuclear/cytoplasmic p65 ratio: higher = more nuclear NF-kappaB p65
- Hit rule: 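Called active when z exceeds 3.3 or falls under -1.56 (median of Tlr4 controls), giving activity score of at least 50; no calls for control wells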
- Meaning of the calls: active = hit (p65 shift raised or lowered); inactive = no clear change

Dtwd1 (DTW domain containing 1)
- nuclear/cytoplasmic p65 ratio, rep 1: 1.28
- nuclear/cytoplasmic p65 ratio, rep 2: 1.2
- low cell count flag: fewer than 50 cells per well; well left out of scoring
- call: inactive

Ccdc85b (coiled-coil domain containing 85B)
- p65 translocation robust z-score: 1.37
- nuclear/cytoplasmic p65 ratio, rep 1: 2.02
- nuclear/cytoplasmic p65 ratio, rep 2: 1.67
- low cell count flag: enough cells to score
- call: inactive

Xab2 (XPA binding protein 2)
- nuclear/cytoplasmic p65 ratio, rep 1: 1.19
- nuclear/cytoplasmic p65 ratio, rep 2: 1.29
- low cell count flag: fewer than 50 cells per well; well left out of scoring
- call: inactive

Gprc6a (G protein-coupled receptor, family C, group 6, member A)
- p65 translocation robust z-score: 0.63
- nuclear/cytoplasmic p65 ratio, rep 1: 1.49
- nuclear/cytoplasmic p65 ratio, rep 2: 1.78
- low cell count flag: enough cells to score
- call: inactive

Ooep (oocyte expressed protein)
- nuclear/cytoplasmic p65 ratio, rep 1: 1.48
- nuclear/cytoplasmic p65 ratio, rep 2: 1.43
- low cell count flag: fewer than 50 cells per well; well left out of scoring
- call: inactive

Unc45a (unc-45 myosin chaperone A)
- p65 translocation robust z-score: -0.14
- nuclear/cytoplasmic p65 ratio, rep 1: 1.25
- nuclear/cytoplasmic p65 ratio, rep 2: 1.56
- low cell count flag: enough cells to score
- call: inactive

Zfp979 (zinc finger protein 979)
- p65 translocation robust z-score: -0.6
- nuclear/cytoplasmic p65 ratio, rep 1: 1.36
- nuclear/cytoplasmic p65 ratio, rep 2: 1.34
- low cell count flag: enough cells to score
- call: inactive

Wdr76 (WD repeat domain 76)
- p65 translocation robust z-score: -0.08
- nuclear/cytoplasmic p65 ratio, rep 1: 1.58
- nuclear/cytoplasmic p65 ratio, rep 2: 1.62
- low cell count flag: enough cells to score
- call: inactive

Phip (pleckstrin homology domain interacting protein)
- p65 translocation robust z-score: -0.12
- nuclear/cytoplasmic p65 ratio, rep 1: 1.46
- nuclear/cytoplasmic p65 ratio, rep 2: 1.41
- low cell count flag: enough cells to score
- call: inactive

Dnajc8 (DnaJ heat shock protein family (Hsp40) member C8)
- p65 translocation robust z-score: 2.19
- nuclear/cytoplasmic p65 ratio, rep 1: 1.79
- nuclear/cytoplasmic p65 ratio, rep 2: 1.62
- low cell count flag: enough cells to score
- call: inactive

Rnf139 (ring finger protein 139)
- p65 translocation robust z-score: -0.47
- nuclear/cytoplasmic p65 ratio, rep 1: 1.48
- nuclear/cytoplasmic p65 ratio, rep 2: 1.61
- low cell count flag: enough cells to score
- call: inactive

Look-ups from the list.
Dtwd1 (DTW domain containing 1), nuclear/cytoplasmic p65 ratio, rep 2 = 1.2
Unc45a (unc-45 myosin chaperone A), p65 translocation robust z-score → -0.14
Under “call”, Wdr76 (WD repeat domain 76) has inactive

The listing continues.
Rpl23a (ribosomal protein L23A)
- nuclear/cytoplasmic p65 ratio, rep 1: 1.31
- nuclear/cytoplasmic p65 ratio, rep 2: 1.5
- low cell count flag: fewer than 50 cells per well; well left out of scoring
- call: inactive

Rpl27 (ribosomal protein L27)
- p65 translocation robust z-score: 0.01
- nuclear/cytoplasmic p65 ratio, rep 1: 1.42
- nuclear/cytoplasmic p65 ratio, rep 2: 1.33
- low cell count flag: enough cells to score
- call: inactive

Aqp4 (aquaporin 4)
- p65 translocation robust z-score: -1.17
- nuclear/cytoplasmic p65 ratio, rep 1: 1.41
- nuclear/cytoplasmic p65 ratio, rep 2: 1.47
- low cell count flag: enough cells to score
- call: inactive

Mybpc2 (myosin binding protein C, fast-type)
- p65 translocation robust z-score: -0.29
- nuclear/cytoplasmic p65 ratio, rep 1: 1.74
- nuclear/cytoplasmic p65 ratio, rep 2: 1.55
- low cell count flag: enough cells to score
- call: inactive

Or6c1b (olfactory receptor family 6 subfamily C member 1B)
- nuclear/cytoplasmic p65 ratio, rep 1: 1.3
- nuclear/cytoplasmic p65 ratio, rep 2: 1.07
- low cell count flag: fewer than 50 cells per well; well left out of scoring
- call: inactive

Slc22a2
- p65 translocation robust z-score: 0.57
- nuclear/cytoplasmic p65 ratio, rep 1: 1.48
- nuclear/cytoplasmic p65 ratio, rep 2: 1.37
- low cell count flag: enough cells to score
- call: inactive

S100a13 (S100 calcium binding protein A13)
- p65 translocation robust z-score: -0.42
- nuclear/cytoplasmic p65 ratio, rep 1: 1.41
- nuclear/cytoplasmic p65 ratio, rep 2: 1.5
- low cell count flag: enough cells to score
- call: inactive

Xpo6 (exportin 6)
- p65 translocation robust z-score: -0.15
- nuclear/cytoplasmic p65 ratio, rep 1: 1.4
- nuclear/cytoplasmic p65 ratio, rep 2: 1.22
- low cell count flag: enough cells to score
- call: inactive

Soat2 (sterol O-acyltransferase 2)
- p65 translocation robust z-score: 0.38
- nuclear/cytoplasmic p65 ratio, rep 1: 1.57
- nuclear/cytoplasmic p65 ratio, rep 2: 1.65
- low cell count flag: enough cells to score
- call: inactive

Sesn1 (sestrin 1)
- p65 translocation robust z-score: -0.25
- nuclear/cytoplasmic p65 ratio, rep 1: 1.52
- nuclear/cytoplasmic p65 ratio, rep 2: 1.51
- low cell count flag: enough cells to score
- call: inactive
